# Measurements reported in patent US20140066373A1, “TREATING DIABETES WITH OXYTOCIN OR OXYTOCIN ANALOGS” (Albert Einstein College of Medicine of Yeshiva University, priority 2012, published 2014).
# By UniProt entry, the sequences of proteins in these tests, tags left out. Where a name states a change or a piece, a line headed by the entry shows the natural chain unless it says otherwise.
# UniProt P01178: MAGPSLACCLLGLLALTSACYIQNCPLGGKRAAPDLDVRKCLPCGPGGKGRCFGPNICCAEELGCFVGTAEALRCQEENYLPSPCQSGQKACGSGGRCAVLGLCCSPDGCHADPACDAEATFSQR
# What was measured:
# [1] = system: HFD-induced prediabetic mouse model; assay: Acute intra-third ventricle therapy in HFD-induced prediabetic (dietary obese) mice: GTT, fasting blood insulin, body weight; type: in vivo, C57BL/6 mice; details: 2-month HFD mice, overnight period under fasting, 2 μg per injection twice
# Excerpt: (§1) Animals. C57BL/6 mice were purchased from Jackson Laboratory. All mice were housed in standard conditions. High-fat diet was purchased from Research Diets, Inc. All animal procedures were approved by the Institutional Animal Care and Use Committee. Mice were subjected to body weight measurement on a daily basis surrounding surgical procedures or drug treatments to monitor physical recovery or the effect of drug treatment on body weight.
# (§2) Third ventricle cannulation and drug treatment. Third ventricle cannulation procedure was as previously described (39). An ultra-precise small animal stereotactic apparatus (Kopf Instruments) was used to perform implantation of a guide cannula into the third ventricle of anesthetized mice, at the coordinates of 1.8 mm posterior to the bregma and 5.0 mm below the skull surface. Mice were allowed 1-2 weeks for postsurgical recovery. For drug treatment. Oxytocin (Bachem Americas, Inc.), [Ser4, Ile8]-oxytocin (Bachem Americas, Inc.), [Asu1,6]-oxytocin (American Peptide Company, Inc.) or control vehicle were injected via pre-implanted guide cannula into the third ventricle of individually housed mice.
# (§3) Blood tests. For glucose tolerance test (GTT), overnight-fasted mice received one-time intraperitoneal injection of glucose (2 g/kg body weight), and blood glucose levels were measured using OneTouch Ultra2 (LifeScan, Inc.). Fasting blood insulin levels were measured with Ultra Sensitive Mouse Insulin ELISA kits (Crystal Chem). Glucose-stimulated insulin secretion (GSIS) test was performed as previously described (19). Overnight-fasted mice received one-time intraperitoneal injection of glucose (3 g/kg body weight), and blood insulin levels were measured at 3 min. and 20 min. after the injection.
# Acute oxytocin therapy reverses insulin resistance in dietary obese mice independently of body weight. […]
# [2] = system: STZ-induced diabetic mice; assay: 7-day intra-third ventricle pretreatment in STZ-induced diabetic mice: GTT, fasting blood insulin, GSIS, body weight; type: in vivo, C57BL/6 mice
# Excerpt: as §1, §2
# as §3, with “injection. […]” for “injection.”
# Finally [Asu1,6]-oxytocin was tested for potential […] protection and anti-diabetic effects using an STZ-induced diabetic mouse model. […] Following [Asu1,6]-oxytocin and STZ treatments, mice were evaluated for glucose tolerance test, fasting blood insulin levels, and glucose-stimulated insulin secretion.
Compound,body weight changes [1],body weight changes [2]
"[Asu1,6]-oxytocin",not accompanied by statistically significant body weight changes,not associated with significant changes in body weight
"[Ser4, Ile8]-oxytocin (CYISNCPIG; Oxytocin; UniProt P01178 20-28, looked up, variant Q4S L8I) [oxytocin analog: glutamine at position 4 substituted with serine, leucine at position 8 with isoleucine; Bachem Americas, Inc]",did not incur body weight changes,did not involve significant body weight changes
"CC[C@H](C)[C@@H]1NC(=O)[C@H](Cc2ccc(O)cc2)NC(=O)[C@@H](N)CSSC[C@@H](C(=O)N2CCC[C@H]2C(=O)N[C@@H](CC(C)C)C(=O)NCC(N)=O)NC(=O)[C@H](CC(N)=O)NC(=O)[C@H](CCC(N)=O)NC1=O [oxytocin, Cys-Tyr-Ile-Gln-Asn-Cys-Pro-Leu-Gly-NH2]",did not induce body weight changes,not associated with significant changes in body weight
